Source: paper PMC7599230
Results are given in words; binding and its absence hold for the method and conditions named. In cells and extracts the contact can be indirect. Some results given as binding are weak or reduced against the parent protein; the word gives no strength.

By UniProt entry, the sequences of proteins in these tests, tags left out. Where a name states a change or a piece, a line headed by the entry shows the natural chain unless it says otherwise. Residues count along the entry.
UniProt Q01469: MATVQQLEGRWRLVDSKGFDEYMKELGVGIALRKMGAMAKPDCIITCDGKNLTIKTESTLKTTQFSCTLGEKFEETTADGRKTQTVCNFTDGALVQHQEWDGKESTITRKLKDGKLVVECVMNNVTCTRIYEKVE
UniProt Q16665: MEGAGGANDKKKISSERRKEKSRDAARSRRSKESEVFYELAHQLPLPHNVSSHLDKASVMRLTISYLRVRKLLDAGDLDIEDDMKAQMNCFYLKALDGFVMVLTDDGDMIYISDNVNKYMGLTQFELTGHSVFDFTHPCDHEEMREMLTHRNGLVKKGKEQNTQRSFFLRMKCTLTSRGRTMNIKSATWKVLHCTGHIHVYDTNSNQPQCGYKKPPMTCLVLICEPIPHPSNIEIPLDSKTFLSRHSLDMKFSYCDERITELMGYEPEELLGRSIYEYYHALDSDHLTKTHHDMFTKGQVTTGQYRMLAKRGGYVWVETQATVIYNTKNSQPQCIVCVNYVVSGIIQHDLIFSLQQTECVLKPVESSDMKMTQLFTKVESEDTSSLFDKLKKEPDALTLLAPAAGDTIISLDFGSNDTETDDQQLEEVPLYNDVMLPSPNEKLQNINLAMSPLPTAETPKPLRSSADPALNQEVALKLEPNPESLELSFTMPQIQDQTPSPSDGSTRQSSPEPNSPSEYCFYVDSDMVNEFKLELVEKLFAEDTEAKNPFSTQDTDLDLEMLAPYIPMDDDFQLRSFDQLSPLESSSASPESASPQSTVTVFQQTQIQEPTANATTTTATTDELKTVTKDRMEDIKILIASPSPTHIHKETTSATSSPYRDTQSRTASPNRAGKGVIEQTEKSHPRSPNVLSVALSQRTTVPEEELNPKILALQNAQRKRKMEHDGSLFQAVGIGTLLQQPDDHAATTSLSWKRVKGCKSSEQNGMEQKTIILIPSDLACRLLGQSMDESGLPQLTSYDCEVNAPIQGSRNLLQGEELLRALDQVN
GFP-HIF-1α-N-terminal (aa: 1–400): residues 1-400 of Q16665

Tests used:
[1] = target: Flag/Streptavidin Binding Peptide-FABP5 (human) (UniProt Q01469); assay: co-IP; transfected 293T cells, 10 μM MG132 for 8 h; 1 mg lysate in IP buffer (5 mM EDTA, 50 mM Tris-Cl, 100 mM NaCl, 1% NP-40) with streptavidin beads or HA beads, 16 h, 4 °C; western blotting; with or without F/S-FABP5 overexpression for the FIH blot
HA-tagged HIF-1α (human) = HA-tagged HIF-1α (human) (UniProt Q16665); assay: as above

Substance	binding [1]	binding (HA-tagged HIF-1α (human))
GFP-HIF-1α-N-terminal (aa: 1–400) (from UniProt Q16665-1 1-400) (domain or fragment)	binds	
Flag/Streptavidin Binding Peptide-FABP5 (from UniProt Q01469 1-135)		binds
